From PubChem BioAssay AID540303 (National Center for Advancing Translational Sciences (NCATS), 2011)
Among all 330,000 compounds or so, about 1,000 (0.3%) were called active. Inconclusive results, whose numbers are uncertain, are shown with a selection of clear calls. Calls follow the shape of the dose curve; as a rule, active = well fitted inhibition curve with a large enough effect; inconclusive = small, poorly fitted or top-dose-only effect; inactive = no such curve, though single readings can be large or run the other way; tested in mouse RAW 264.7 cells. A potency beside an inconclusive call is a rough fit, not a confirmed value.

Test: qHTS for Inhibitors of Cell Surface uPA Generation; also: nearly all actives have a fitted effect of over 55% in size
Settings: cell surface uPA generation assay; series mostly up to 38.3 µM; activity change, negative = inhibition: at the top concentration
Summary of the method: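 RAW 264.7 cells (4000/well) were plated overnight at 37 C and then given compounds in a 1:5 series (up to 38.3 uM final) plus reagent for 24 h. Intracellular ATP was measured by ATP-Lite luminescence and stays elevated when uPA-dependent LF entry is blocked.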
% is scaled to controls: 0 for no effect and ±100 for the full control effect; potency is read from the fitted curve at half-maximal effect.

| SMILES | Potency | activity change, negative = inhibition |
| --- | --- | --- |
| Cc1cc(N2CCN(S(=O)(=O)c3ccc(Cl)c(Cl)c3)CC2)c2ccccc2n1 | inconclusive: 12.6 µM [inhibitor, single point] | – |
| COc1c(Br)cc(Br)cc1/C=N/NC(=O)c1cccnc1 | inconclusive: 11.2 µM [inhibitor, partial curve, poor fit] | – |
| COc1ccc(-c2cc(=O)c3cc(O)ccc3o2)cc1 | inconclusive: 8.91 µM [inhibitor, partial curve, poor fit] | – |
| COc1ccccc1-c1cc(-c2ccccc2)nc(SCC(=O)O)c1C#N | inconclusive: 3.16 µM [inhibitor, partial curve, poor fit] | – |
| CCCCn1c(NC(=O)C2CCCCC2)nc2ccccc21 | – | inactive: -6.54% |
| CCOc1ccccc1NC(=O)CN1C(=O)COc2ccc(Cl)cc21 | inconclusive: 10 µM [inhibitor, partial curve, poor fit] | – |
| COc1ccc(Nc2nc(-c3ccc(OC)cc3)c(CCC(=O)O)s2)cc1 | – | inactive: -2.05% |
| CCOC(=O)c1cnc2ccc(OC)cc2c1Nc1ccc(N2CCN(C)CC2)cc1 | – | inactive: -1.9% |
| COc1cc(-c2noc(C)c2-c2ccc3[nH]ccc3c2)cc(OC)c1OC | active: 0.562 µM | – |
| CCOc1c(Br)cc(CNC2CCCCCCC2)cc1OC | inconclusive: 7.94 µM [inhibitor, partial curve, poor fit] | – |
| C[C@@]12C(=O)Nc3ccccc3C(=O)N1[C@H]1c3cc(Cl)ccc3OC[C@@H]1[C@@H]2c1ccccc1 | inconclusive: 12.6 µM [inhibitor, single point] | – |
| Cc1cccnc1NC(=O)CNC(=O)C12CC3CC(CC(C3)C1)C2 | inconclusive: 10 µM [inhibitor, partial curve, poor fit] | – |
| CCOc1ccc(OCC(=O)OCn2c(SC)nnc(C)c2=O)cc1 | – | inactive: -1.58% |
| Cc1ccccc1NC(=O)Cc1nc(COC(=O)c2cccnc2Cl)cs1 | inconclusive: 3.16 µM [inhibitor, partial curve, poor fit] | – |
| CCOC(=O)c1nc(-c2ccc3c(c2)OCO3)[nH]c1C | inconclusive: 10 µM [inhibitor, single point] | – |
| CCCCOc1ccc(-c2nnn(CC(=O)NCc3ccco3)n2)cc1 | inconclusive: 0.794 µM [inhibitor, full curve, poor fit] | – |
| CC1(C)CNC(=O)c2sc(NC(=O)c3ccccc3)nc2C1 | – | inactive: 2.17% |
| Cc1onc(-c2ccccc2Cl)c1C(=O)N1CCN(c2cccc(Cl)c2)CC1 | active: 2.24 µM | – |
| O=C1/C(=C/c2ccco2)SC(=S)N1C1CCS(=O)(=O)C1 (centres undefined) | inconclusive: 12.6 µM [inhibitor, single point] | – |
| C[C@]12CC[C@@H]3c4ccc(O)cc4CC[C@H]3[C@@H]1CC[C@@H]2OC(=O)CCC(=O)O | inconclusive: 14.1 µM [inhibitor, partial curve, poor fit] | – |
| CCOC(=O)C1(CCOc2ccccc2)CCN(Cc2cc(OC)c(O)cc2Cl)CC1 | inconclusive: 6.31 µM [inhibitor, single point] | – |
| CCCOc1cccc(-c2nnc(NC(=O)c3ccco3)s2)c1 | inconclusive: 3.98 µM [inhibitor, partial curve, poor fit] | – |

| SMILES | Potency | activity change, negative = inhibition |
| --- | --- | --- |
| CCCCN1C(=O)C(=O)c2cc(Cl)ccc21 | inconclusive: 22.4 µM [inhibitor, single point] | – |
| S=C(Nc1cc(Cl)cc(Cl)c1)NC1CCN(Cc2ccccc2)CC1 | inconclusive: 20 µM [inhibitor, single point] | – |
| CCCCn1c(N)c(N(CCOC)C(=O)CCNC(=O)c2ccccc2Cl)c(=O)[nH]c1=O | – | inactive: 5.13% |
| COc1cc(OC)nc(Oc2cc(/C=N/O)ccc2OC)n1 | inconclusive: 10 µM [inhibitor, single point] | – |
| O=S1(=O)N[C@@H](CC2CCCCC2)COc2cc(Br)ccc21 | active: 1.58 µM | – |
| N#CC1=C(N)Oc2cc(N)ccc2C1c1cccc(Br)c1 (centres undefined) | inconclusive: 0.501 µM [inhibitor, full curve, poor fit] | – |
| CCc1c(C)sc(NC(=O)c2cc(-c3ccc(O)cc3)on2)c1C#N | inconclusive: 12.6 µM [inhibitor, single point] | – |
| Cc1ccc(S(=O)(=O)N2CCCCC2)cc1NC(=O)CSc1ncccn1 | inconclusive: 0.355 µM [inhibitor, partial curve, poor fit] | – |
| Cc1cc(C)c(C)c(S(=O)(=O)N2CCC(C(=O)NCCCN3CCCC3=O)CC2)c1C | inconclusive: 1.41 µM [inhibitor, partial curve, poor fit] | – |
| NC1=NC(=Nc2cccc(S(N)(=O)=O)c2)c2ccccc21 | – | inactive: -8.11% |
| CC(=O)NC1=NN(C(C)=O)C(C)(c2ccccc2)S1 (centres undefined) | inconclusive: 2.51 µM [inhibitor, full curve, poor fit] | – |
| CC(C)Cn1c(N)c(C(=O)COC(=O)C2Cc3ccccc3CN2S(C)(=O)=O)c(=O)n(C)c1=O (centres undefined) | inconclusive: 4.47 µM [inhibitor, partial curve, poor fit] | – |
| Nc1nc2c(ncn2[C@H]2C[C@H](O)[C@@H](CO)O2)c(=O)[nH]1 | inconclusive: 7.08 µM [inhibitor, single point] | – |
| Cc1noc2ncnc(N3CCN(c4cccc(Cl)c4)CC3)c12 | inconclusive: 28.2 µM [inhibitor, single point] | – |
| Cc1cccn2cc(-c3ccc(Cl)cc3)nc12 | inconclusive: 10 µM [inhibitor, partial curve, poor fit] | – |
| Cn1cccc1/C=C1\SC(=Nc2ccc(O)cc2)NC1=O | inconclusive: 1.12 µM [inhibitor, full curve, poor fit] | – |
| COc1ccc(NC(=O)CSc2nccn2Cc2ccccc2)cc1 | inconclusive: 0.316 µM [inhibitor, full curve, poor fit] | – |
| COc1cccc(CNC(=O)CN2C(=O)CSc3ccc(S(=O)(=O)N4CCCC4)cc32)c1 | inconclusive: 0.0126 µM [inhibitor, full curve, poor fit] | – |
| O=C(NCCc1cccc(Cl)c1)c1ccc2c(c1)OCO2 | inconclusive: 4.47 µM [inhibitor, full curve] | – |
| Cn1c(=O)c2c(nc(SCc3cccnc3)n2Cc2ccccc2)n(C)c1=O | – | inactive: -4.23% |
| Cc1ccc(-c2cc(=O)c3cc(C)ccc3[nH]2)cc1 | active: 1.12 µM | – |
| Oc1c(N=NC(=S)Nc2ccccc2F)c2ccccc2n1Cc1ccc(F)cc1 | inconclusive: 5.62 µM [inhibitor, single point] | – |

A draw from above in order of molecular weight, rising.

| SMILES | Potency | activity change, negative = inhibition |
| --- | --- | --- |
| CC(=O)NC1=NN(C(C)=O)C(C)(c2ccccc2)S1 (centres undefined) | inconclusive: 2.51 µM [inhibitor, full curve, poor fit] | – |
| S=C(Nc1cc(Cl)cc(Cl)c1)NC1CCN(Cc2ccccc2)CC1 | inconclusive: 20 µM [inhibitor, single point] | – |
| CC(C)Cn1c(N)c(C(=O)COC(=O)C2Cc3ccccc3CN2S(C)(=O)=O)c(=O)n(C)c1=O (centres undefined) | inconclusive: 4.47 µM [inhibitor, partial curve, poor fit] | – |

(cont.)

| SMILES | Potency | activity change, negative = inhibition |
| --- | --- | --- |
| COc1ccc(CNC(=O)[C@@H]2CC=C[C@@H]3CCN(Cc4ccc(Cl)c(Cl)c4)C(=O)[C@@H]32)cc1 | inconclusive: 12.6 µM [inhibitor, single point] | – |
| O=C(NNC(=O)c1ccc(Oc2cc(Cl)cc(Cl)c2)o1)c1ccccc1 | inconclusive: 8.91 µM [inhibitor, single point] | – |
| CC[C@@H]1C=C(C(=O)O)[C@H](c2ccc(Cl)c(Cl)c2)N1S(=O)(=O)c1ccc(C)cc1 | – | inactive: -3.06% |
| O=C(O)c1ccc(S(=O)(=O)c2ccc([N+](=O)[O-])cc2[N+](=O)[O-])cc1 | inconclusive: 8.91 µM [inhibitor, single point] | – |
| O=C(Nc1ccc(Cl)cc1)C(Cl)C(=O)c1ccccc1 (centres undefined) | – | inactive: -1.87% |
| COc1ccc(S(=O)(=O)N2CCCCCC2)cc1C(=O)NCCc1ccccc1 | inconclusive: 12.6 µM [inhibitor, partial curve, poor fit] | – |
| CCNC(=O)CN1C(=O)NC2(CCOc3ccccc32)C1=O (centres undefined) | – | inactive: 5.26% |
| O=C(Nc1ccc(S(=O)(=O)N2CCCCC2)cc1)c1ccc(Cl)nc1 | inconclusive: 8.91 µM [inhibitor, partial curve, poor fit] | – |
| CC1C/C(=C\c2cccnc2)C(=O)/C(=C/c2cccnc2)C1 (centres undefined) | – | inactive: -11.8% |
| COc1ccc(C(=O)O/N=C(\N)c2cccc(C)c2)cc1OC | inconclusive: 7.94 µM [inhibitor, partial curve, poor fit] | – |
| CCc1ccc(N2CC(C(=O)N3CCN(c4ccccn4)CC3)CC2=O)cc1 (centres undefined) | – | inactive: 1.97% |
| Cc1noc(C)c1CSc1nc2ccccc2c(=O)n1-c1ccccc1 | inconclusive: 3.16 µM [inhibitor, partial curve, poor fit] | – |
| COc1cccc(C(=O)/C=C2\Sc3ccccc3N2C)c1 | – | inactive: -6.21% |
| COc1ccccc1-c1nnc(NC(=O)c2ccc(S(=O)(=O)N(C)CC3CCCO3)cc2)o1 (centres undefined) | inconclusive: 10 µM [inhibitor, single point] | – |
| OC(COc1ccccc1)CN1CCN(Cc2ccc3c(c2)OCO3)CC1 (centres undefined) | – | inactive: 1.73% |
| CCC(O)C1CCN(C(=O)c2ccc(OC3CCN(Cc4ccccn4)CC3)cc2)CC1 (centres undefined) | inconclusive: 0.0141 µM [inhibitor, full curve, poor fit] | – |
| COc1cccc(-c2cc(C(=O)Nc3ccc(N(C)C(C)=O)cc3)c3cc(Br)ccc3n2)c1 | inconclusive: 5.62 µM [inhibitor, partial curve] | – |
| Cc1cc(O)c2c(c1O)C(=O)[C@]13C(=C2O)C(=O)[C@@H]2[C@@H](O)[C@H]1[C@@H]1[C@H](O)[C@H]3C(=O)C3=C(O)c4c(O)cc(C)c(O)c4C(=O)[C@]312 | inconclusive: 3.55 µM [inhibitor, full curve, poor fit] | – |
| O=C(CSc1ncccn1)N/N=C/c1cccc(OC2CSC2)c1 | inconclusive: 7.08 µM [inhibitor, partial curve, poor fit] | – |
| CCOC(=O)c1ccccc1NC(=O)CSc1ccc(-c2ccccn2)nn1 | inconclusive: 11.2 µM [inhibitor, partial curve, poor fit] | – |
